These are yes or no findings as the source states them, for the method shown. Binding seen in cells or lysates may run through a third protein. Some binding calls cover weakened binding; strength is not graded here.
How the values were obtained:
[1] = target: human MCL-1 protein expressed in mouse cells (human) (UniProt Q07820); experiment: co-IP
[2] = target: T1, mouse MCL-1 (mouse (endogenous in thymocytes)), P97287; experiment: co-IP; settings: remark: other sources report otherwise
T1 chain: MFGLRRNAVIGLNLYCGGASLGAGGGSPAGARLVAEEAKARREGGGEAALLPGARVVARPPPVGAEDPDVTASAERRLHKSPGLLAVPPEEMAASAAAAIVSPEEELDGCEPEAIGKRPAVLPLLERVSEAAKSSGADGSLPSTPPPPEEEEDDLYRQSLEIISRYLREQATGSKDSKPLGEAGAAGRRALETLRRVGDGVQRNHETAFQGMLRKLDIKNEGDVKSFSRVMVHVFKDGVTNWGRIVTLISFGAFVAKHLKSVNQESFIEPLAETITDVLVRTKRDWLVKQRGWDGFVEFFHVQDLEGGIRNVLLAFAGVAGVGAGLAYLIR

Protein sequences, listed by entry. Tags and fused reporters are not part of them.
UniProt Q07820: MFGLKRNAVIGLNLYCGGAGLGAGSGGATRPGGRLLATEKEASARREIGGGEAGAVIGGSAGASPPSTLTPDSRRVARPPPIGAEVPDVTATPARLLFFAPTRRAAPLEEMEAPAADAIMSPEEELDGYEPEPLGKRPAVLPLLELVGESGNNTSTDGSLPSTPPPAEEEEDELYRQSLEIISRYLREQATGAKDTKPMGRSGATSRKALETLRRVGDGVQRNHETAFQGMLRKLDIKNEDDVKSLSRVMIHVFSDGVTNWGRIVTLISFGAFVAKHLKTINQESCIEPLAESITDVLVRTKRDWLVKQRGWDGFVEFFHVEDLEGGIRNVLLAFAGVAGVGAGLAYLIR

With mouse BIM (from UniProt O54918 1-196) the binding [1] was “binds”.

B1: mouse BIM, O54918 1-196 (protein)
chain: MAKQPSDVSSECDREGGQLQPAERPPQLRPGAPTSLQTEPQGNPDGEGDRCPHGSPQGPLAPPASPGPFATRSPLFIFVRRSSLLSRSSSGYFSFDTDRSPAPMSCDKSTQTPSPPCQAFNHYLSAMASIRQSQEEPEDLRPEIRIAQELRRIGDEFNETYTRRVFANDYREAEDHPQMVILQLLRFIFRLVWRRH
In the case of B1, the binding [2] is reported as “binds”.
